Reference: PMC8964682, “Structural and biochemical characterization of in vivo assembled Lactococcus lactis CRISPR-Csm complex” (Communications Biology, 2022)
Where a chain is given by its changes, count along the chain named. Names may count otherwise. Results are given in words; binding and its absence hold for the method and conditions named. For part of these data: In cells and extracts the contact can be indirect. Some results given as binding are weak or reduced against the parent protein; the word gives no strength. For part of these data: Tags and fused reporters may be left off the sequences shown.

How the values were obtained:
[1] = biological target: T1, Lactococcus lactis Csm4, subunit of the LlCsm complex (Lactococcus lactis) (UniProt L0CFH1); test: cryo-EM structure; co-purified LlCsm (Csm1 D14N, Csm3 D30A)-crRNA without target RNA (apo); 2.9 Å; both purified
T1 sequence: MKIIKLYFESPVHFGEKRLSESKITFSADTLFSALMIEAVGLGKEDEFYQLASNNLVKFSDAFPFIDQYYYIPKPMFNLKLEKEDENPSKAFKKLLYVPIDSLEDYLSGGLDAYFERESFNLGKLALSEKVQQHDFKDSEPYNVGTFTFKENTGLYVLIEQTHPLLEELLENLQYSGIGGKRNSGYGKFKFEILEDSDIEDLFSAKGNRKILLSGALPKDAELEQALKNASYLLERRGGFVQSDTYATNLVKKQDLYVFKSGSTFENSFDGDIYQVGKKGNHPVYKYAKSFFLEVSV

[2] = biological target: T2, Lactococcus lactis Csm2 with N-terminal His6-tag, subunit of the LlCsm complex (Lactococcus lactis) (UniProt L0CFW2); test: cryo-EM structure; co-purified LlCsm (Csm1 D14N, Csm3 D30A)-crRNA incubated with CTR at 1:2, 37 °C, 60 min, then SEC; no ATP; two classes, CTR-43 (3.0 Å) and CTR-32 (3.3 Å); both purified
T2 sequence: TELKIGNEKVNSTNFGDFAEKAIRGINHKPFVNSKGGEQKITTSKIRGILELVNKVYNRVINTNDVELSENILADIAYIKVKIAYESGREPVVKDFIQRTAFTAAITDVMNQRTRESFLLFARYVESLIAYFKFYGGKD

[3] = biological target: T1, Lactococcus lactis Csm4, subunit of the LlCsm complex (Lactococcus lactis); test: as above
[4] = biological target: T2, Lactococcus lactis Csm2 with N-terminal His6-tag, subunit of the LlCsm complex (Lactococcus lactis); test: cryo-EM structure; apo subpopulation from a mixture of LlCsm with DTR, no DTR bound; 4.5 Å; no model built, used only to confirm presence and placement of the subunits; both purified
[5] = biological target: T1, Lactococcus lactis Csm4, subunit of the LlCsm complex (Lactococcus lactis); test: as above
[6] = biological target: T2, Lactococcus lactis Csm2 with N-terminal His6-tag, subunit of the LlCsm complex (Lactococcus lactis); test: cryo-EM structure; co-purified LlCsm (Csm1 D14N, Csm3 D30A)-crRNA incubated with NTR at 1:2, 37 °C, 60 min, then SEC; 3.4 Å; both purified
[7] = biological target: T1, Lactococcus lactis Csm4, subunit of the LlCsm complex (Lactococcus lactis); test: as above
[8] = biological target: T1, Lactococcus lactis Csm4, subunit of the LlCsm complex (Lactococcus lactis); test: cross-linking; CTR- and NTR-bound pre-assembled RNP complexes at ~10 nM, BS3-d0 / BS3-d4 for 60 min, SDS-PAGE, trypsin digestion, LC-MS/MS; abundance of cross-links compared between CTR- and NTR-bound; both purified
[9] = biological target: T2, Lactococcus lactis Csm2 with N-terminal His6-tag, subunit of the LlCsm complex (Lactococcus lactis); test: pull-down + SEC; Cas6, Csm1-6 and crRNA co-expressed in E. coli; N-terminally His-tagged Csm2 as bait; metal-affinity then size-exclusion chromatography in 20 mM HEPES pH 7.5, 200 mM NaCl, 5 mM MgCl2, 14 mM 2-mercaptoethanol; silver-stained gel; the complex carries the 37-nt crRNA
[10] = biological target: T3, Lactococcus lactis Csm3 Asp30Ala, subunit of the LlCsm (D14N)1(D30A)3 complex (Lactococcus lactis) (UniProt L0CEA3); test: cryo-EM structure; co-purified LlCsm (Csm1 D14N, Csm3 D30A)-crRNA without target RNA (apo); 2.9 Å; both purified
T3 sequence: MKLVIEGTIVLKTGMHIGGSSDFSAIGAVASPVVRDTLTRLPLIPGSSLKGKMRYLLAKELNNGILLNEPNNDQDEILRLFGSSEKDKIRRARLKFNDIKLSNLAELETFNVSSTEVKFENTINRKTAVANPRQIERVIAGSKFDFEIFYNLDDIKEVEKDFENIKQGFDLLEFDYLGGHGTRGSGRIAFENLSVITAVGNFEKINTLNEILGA

[11] = biological target: T3, Lactococcus lactis Csm3 Asp30Ala, subunit of the LlCsm (D14N)1(D30A)3 complex (Lactococcus lactis); test: cryo-EM structure; co-purified LlCsm (Csm1 D14N, Csm3 D30A)-crRNA incubated with CTR at 1:2, 37 °C, 60 min, then SEC; no ATP; two classes, CTR-43 (3.0 Å) and CTR-32 (3.3 Å); both purified
[12] = biological target: T3, Lactococcus lactis Csm3 Asp30Ala, subunit of the LlCsm (D14N)1(D30A)3 complex (Lactococcus lactis); test: cryo-EM structure; apo subpopulation from a mixture of LlCsm with DTR, no DTR bound; 4.5 Å; no model built, used only to confirm presence and placement of the subunits; both purified
[13] = biological target: T3, Lactococcus lactis Csm3 Asp30Ala, subunit of the LlCsm (D14N)1(D30A)3 complex (Lactococcus lactis); test: cryo-EM structure; co-purified LlCsm (Csm1 D14N, Csm3 D30A)-crRNA incubated with NTR at 1:2, 37 °C, 60 min, then SEC; 3.4 Å; both purified

Measured: binding

B1: Lactococcus lactis Csm3 Asp30Ala, subunit of the LlCsm (D14N)1(D30A)3 complex (natural protein)
chain: T3 sequence
notes: Csm3 of the plasmid-encoded (pKLM) Type III-A CRISPR-Cas system of Lactococcus lactis, with the RNase-site mutation D30A; Csm3.1 is the Csm3 copy closest to Csm4; There are four copies in CTR-43, NTR and apo, and three in CTR-32; also called Csm3.1; Csm3.2
not listed: [9] | [10] | [11] | [12] | [13]
binds: all other assays above

B2: Lactococcus lactis Csm3, wild type, subunit of the LlCsm complex (protein, UniProt L0CEA3 1-214)
chain: T3 sequence with A30D
binds: [9]

B3: Lactococcus lactis Csm5, subunit of the LlCsm complex (protein, UniProt L0CG31 1-352)
chain: MKKTYRVTLTALGPIFIGGGEKLKKYEYIFDKQKKVAHMIDHTKFTKYLLEKNLLDDFTSRVNSHFDLYDYLVNKKGIVFMPLVKYSVPVAQFRTEVKNRFGKPISSPPMNDLNTFVKDAFGRPYIPGSSLKGALRTAILNDLKEDTKENEVFAHLQVSDSETIDLENLKVYQKVDYSKTAKPLPLYRECLKPNTEITFTVSFDDEYLTLKKIQNALHKTYQHYYIKWLKGGKVGETLIKGVYDSHADELKKNTFALDQPSQNQGEIIYIGGGAGFVSKTLHYKSKNRDQARNDSFDILKQLFRTTYSKMRSVPDNVPVALKLAVETKTFNGRVTGKHYLEMGKARIKLEEL
not listed: [1] | [3] | [5] | [7] | [8]
binds: all other assays above

B4: Lactococcus lactis Csm4, subunit of the LlCsm complex (protein, UniProt L0CFH1 1-297)
chain: T1 sequence
binds: [9]
